No constants are given. Whether binding was seen depends on the method and setting. Binding seen in cells or lysates may run through a third protein. A result given as binding can be weak or reduced; the word gives no strength. For some assays here: Tags and fused reporters may be left off the sequences shown.
What was measured:
[1] = target: FLAG-tagged PDGFRA (mouse) (UniProt P26618); test: co-IP; FLAG-tagged bait co-expressed with PDGFA-HA in HEK293T for 48 h; lysis buffer 25 mM Tris pH 7.4, 150 mM NaCl, 1% NP40, 0.25% sodium deoxycholate, 1 mM EDTA; anti-FLAG magnetic beads overnight at 4 °C; eluted with 3xFlag peptide; blotted with anti-FLAG and anti-HA
[2] = target: T1, FLAG-tagged TMEFF2 (mouse) (UniProt Q9QYM9); test: as above
T1 sequence: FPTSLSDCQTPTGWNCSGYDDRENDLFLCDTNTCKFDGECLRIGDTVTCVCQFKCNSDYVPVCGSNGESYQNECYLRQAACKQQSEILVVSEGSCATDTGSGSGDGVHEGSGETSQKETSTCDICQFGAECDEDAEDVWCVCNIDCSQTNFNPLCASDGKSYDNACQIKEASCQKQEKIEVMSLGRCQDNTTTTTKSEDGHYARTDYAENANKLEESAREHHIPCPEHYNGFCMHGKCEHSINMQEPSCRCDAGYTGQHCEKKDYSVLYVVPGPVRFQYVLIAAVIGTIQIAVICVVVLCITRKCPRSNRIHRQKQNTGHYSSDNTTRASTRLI

Chains of the proteins cited; added tags and fusions are not shown. Residues count along the entry.
UniProt P26618, residues 25-1089: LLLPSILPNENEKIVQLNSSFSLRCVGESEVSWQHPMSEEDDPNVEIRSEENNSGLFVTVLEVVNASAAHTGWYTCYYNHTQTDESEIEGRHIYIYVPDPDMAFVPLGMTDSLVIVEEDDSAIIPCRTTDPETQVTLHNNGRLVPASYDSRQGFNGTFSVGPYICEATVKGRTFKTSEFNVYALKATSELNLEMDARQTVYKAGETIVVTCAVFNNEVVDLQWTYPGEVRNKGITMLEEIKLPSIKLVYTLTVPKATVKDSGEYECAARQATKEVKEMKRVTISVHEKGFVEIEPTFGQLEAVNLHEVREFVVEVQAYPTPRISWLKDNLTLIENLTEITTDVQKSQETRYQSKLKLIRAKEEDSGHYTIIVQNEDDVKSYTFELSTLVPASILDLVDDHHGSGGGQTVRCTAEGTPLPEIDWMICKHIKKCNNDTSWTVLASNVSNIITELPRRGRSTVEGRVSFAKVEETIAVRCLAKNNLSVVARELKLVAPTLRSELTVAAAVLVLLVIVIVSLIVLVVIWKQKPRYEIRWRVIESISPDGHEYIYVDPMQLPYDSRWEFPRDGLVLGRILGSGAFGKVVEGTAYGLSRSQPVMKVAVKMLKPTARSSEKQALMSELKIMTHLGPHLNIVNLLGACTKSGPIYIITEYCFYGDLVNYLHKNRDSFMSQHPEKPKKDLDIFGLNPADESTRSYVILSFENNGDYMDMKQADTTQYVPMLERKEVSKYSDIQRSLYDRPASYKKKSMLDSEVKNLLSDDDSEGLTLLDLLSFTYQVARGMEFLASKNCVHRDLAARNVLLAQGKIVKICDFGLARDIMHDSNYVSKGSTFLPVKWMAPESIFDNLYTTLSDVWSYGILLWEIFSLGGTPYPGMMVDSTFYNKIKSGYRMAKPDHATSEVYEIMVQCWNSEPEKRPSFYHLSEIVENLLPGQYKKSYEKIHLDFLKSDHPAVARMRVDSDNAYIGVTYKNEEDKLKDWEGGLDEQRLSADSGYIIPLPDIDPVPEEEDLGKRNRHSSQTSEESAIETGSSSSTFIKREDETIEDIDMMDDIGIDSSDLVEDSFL

binding [1]: binds
binding [2]: binds weakly
Substance: HA-tagged PDGFA (from UniProt P20033-2) (ligand)

Source: publication PMC5428413
